The list shows a part of the results.
What follows are sequences tested against OsWRKY34 (Oryza sativa, UniProt Q0JBA9 1-250) (assay: protein-binding microarray (RPBM); PBS, 2% BSA, 51.3 ng/ul salmon testes DNA, 50 uM zinc acetate, 200 nM TF, 25 C, 1 h; high values mean tight binding). Settings: protein: recombinant; tags: N-terminal polyhistidine and DsRed monomer fusion (pET32a); label: CyDye5-dUTP incorporated in the synthesized complementary strand; 3' TTTTT single-stranded linker to array surface; dsDNA, one strand shown.
Outline: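 The binding signal for each feature is its fluorescence intensity in arbitrary units. An Axon 4000B scanner was used to read a custom Agilent array that had been made double-stranded with Cy5-dUTP primer extension, blocked with 2% BSA, incubated at 25 °C for 1 h with 200 nM protein in PBS, 2% BSA, salmon testes DNA and 50 µM zinc acetate, and washed. The protein was an N-terminal polyhistidine–DsRed transcription factor fusion from E. coli BL21-CodonPlus, purified on Ni–NTA.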

Sequences of proteins named here, by UniProt entry; tags and fusion partners are left off.
UniProt Q0JBA9, entry or part of it: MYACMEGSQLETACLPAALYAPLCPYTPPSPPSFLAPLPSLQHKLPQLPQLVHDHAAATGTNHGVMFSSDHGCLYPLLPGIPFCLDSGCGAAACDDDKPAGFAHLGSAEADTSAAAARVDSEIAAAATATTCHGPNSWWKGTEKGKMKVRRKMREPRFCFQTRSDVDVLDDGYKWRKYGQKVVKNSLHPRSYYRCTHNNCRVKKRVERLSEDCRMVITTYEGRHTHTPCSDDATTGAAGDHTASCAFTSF

Question: “AACGTCCGAAATTATCCCTTTCATATCCGCTCCAACACATCGGAGTCACCTAGTGCAG” was tested. Which binding signal did it give?
Answer: Its binding signal is 9470 fluorescence intensity (a.u.).

Question: “GTCGTGTACAAACATTTACTGTACCAGCTAGCGCTCCAGTCGGAGTCACCTAGTGCAG” was tested. Which binding signal did it give?
Answer: The binding signal was 11800 fluorescence intensity (a.u.).

Question: For “ATCCCACTCCCACTTCCATATCGGCGTAACGCTCCTGTAACGGAGTCACCTAGTGCAG”, which binding signal is on record?
Answer: Its binding signal is 8090 fluorescence intensity (a.u.).

Question: How did the binding signal turn out when “CACACATTTGCTATCCTGTCTCCTGTTAATTAGACATTTTCGGAGTCACCTAGTGCAG” was run?
Answer: The binding signal was 8130 fluorescence intensity (a.u.).

Question: How did the binding signal turn out when “CCATGGTTGGGGAGGTTGAAACCCGGTCTCTTCCTGGCTGCGGAGTCACCTAGTGCAG” was run?
Answer: The binding signal was 9580 fluorescence intensity (a.u.).

Question: For “TCTCGGGTATTTAGTTCCAAGAGAACATCTCAGTTCTATTCGGAGTCACCTAGTGCAG”, which binding signal is on record?
Answer: The binding signal was 10500 fluorescence intensity (a.u.).

Question: “TGGGGATGGATATGGCGCTCCGGGGATGGAGGTGGTGGTGCGGAGTCACCTAGTGCAG” was tested. Which binding signal did it give?
Answer: Its binding signal is 8620 fluorescence intensity (a.u.).

Question: With “GAAACCACATGAATTCCGCCTCTATCATAACCGCCCAATGCGGAGTCACCTAGTGCAG” as the sequence, how does the binding signal read?
Answer: The binding signal was 8920 fluorescence intensity (a.u.).

Question: With “GCTTGCTTAAGTCAATGTACATCCTTCCATTTTGATGAAGCGGAGTCACCTAGTGCAG” as the sequence, how does the binding signal read?
Answer: Its binding signal is 8310 fluorescence intensity (a.u.).

Question: For “TCTTTGTGGTCCTTGGTCGTGATTCTTCTTATTGCTTTTTCGGAGTCACCTAGTGCAG”, which binding signal is on record?
Answer: The binding signal was 14800 fluorescence intensity (a.u.).

Question: Which binding signal does the source give for “AGTTTTTGTGCGCATATGCTTTTCTCTTCTCTCTCTCTCTCGGAGTCACCTAGTGCAG” here?
Answer: Its binding signal is 10800 fluorescence intensity (a.u.).

Question: Which binding signal does the source give for “CGCTGATTGGGTTGGGTCGGGTTAGCTTTGGTTTCAATGCCGGAGTCACCTAGTGCAG” here?
Answer: Its binding signal is 11200 fluorescence intensity (a.u.).

Question: How did the binding signal turn out when “ACTTCTTTCTCTCTACTCTTCTACTAGTACACTACGCAACCGGAGTCACCTAGTGCAG” was run?
Answer: Its binding signal is 9020 fluorescence intensity (a.u.).

Question: With “GTCTGCTACTCCTACTACTCTGCTTTGCCACTACTTGGTTCGGAGTCACCTAGTGCAG” as the sequence, how does the binding signal read?
Answer: The binding signal was 9900 fluorescence intensity (a.u.).

Question: With “ATTAACTCTCGTTTTTTGCTTAGTTGGTGTCGCTGTCAAACGGAGTCACCTAGTGCAG” as the sequence, how does the binding signal read?
Answer: Its binding signal is 9250 fluorescence intensity (a.u.).

Question: With “GCGTATAATATACTAGCGCTTGTTAATATATTTTATTATACGGAGTCACCTAGTGCAG” as the sequence, how does the binding signal read?
Answer: The binding signal was 8220 fluorescence intensity (a.u.).

Question: For “CATGTTACATGCTCTCTCTTGCGCTCCATATCCTCGCTCCCGGAGTCACCTAGTGCAG”, which binding signal is on record?
Answer: The binding signal was 9100 fluorescence intensity (a.u.).

Question: “GACTACGATCTCGTCGGTATCGCCTGTTTCGGTTACTCTCCGGAGTCACCTAGTGCAG” was tested. Which binding signal did it give?
Answer: Its binding signal is 8550 fluorescence intensity (a.u.).

Question: For “AACTCTATTATTGCAAGTCTTATACGTGTTGGAGTATTCACGGAGTCACCTAGTGCAG”, which binding signal is on record?
Answer: Its binding signal is 8360 fluorescence intensity (a.u.).

Question: How did the binding signal turn out when “CAGCTACATCGAGTACGTCTACTTCTACTTCAAGTCGCAACGGAGTCACCTAGTGCAG” was run?
Answer: The binding signal was 9270 fluorescence intensity (a.u.).

Question: With “GATCTTTCTCTCATCGACGAGCGCGAGCTGCTAGTATAATCGGAGTCACCTAGTGCAG” as the sequence, how does the binding signal read?
Answer: The binding signal was 8610 fluorescence intensity (a.u.).

Question: Which binding signal does the source give for “TATGTCTGGTTCGGTTTGAGGGGATTGAGAGAAAATAATTCGGAGTCACCTAGTGCAG” here?
Answer: Its binding signal is 8660 fluorescence intensity (a.u.).

Question: Which binding signal does the source give for “GAATAGCTGCTTGTTAACTAGGGATTAGAGGTGGGGTTTTCGGAGTCACCTAGTGCAG” here?
Answer: Its binding signal is 8610 fluorescence intensity (a.u.).

Source: paper PMC7819943, “Rice protein-binding microarrays: a tool to detect cis-acting elements near promoter regions in rice”
